In patent US20250368734A1:
Positions count from the first letter of the chain named. Results are given in words; binding and its absence hold for the method and conditions named. Some binding calls cover weakened binding; strength is not graded here.

T1: mouse GPRC5D (mouse) (UniProt Q9JIL6)
T1 sequence (looked up): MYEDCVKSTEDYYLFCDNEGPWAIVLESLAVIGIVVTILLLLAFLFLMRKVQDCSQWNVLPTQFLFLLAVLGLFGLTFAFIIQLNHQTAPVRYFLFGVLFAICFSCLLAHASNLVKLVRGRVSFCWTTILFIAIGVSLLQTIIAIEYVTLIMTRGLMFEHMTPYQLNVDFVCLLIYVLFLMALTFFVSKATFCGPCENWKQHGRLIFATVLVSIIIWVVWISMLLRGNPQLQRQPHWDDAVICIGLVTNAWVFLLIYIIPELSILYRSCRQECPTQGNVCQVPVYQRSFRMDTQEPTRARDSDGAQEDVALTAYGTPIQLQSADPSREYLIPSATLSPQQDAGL

B1: ch87A3G8 (antibody, V domains shown)
VH: QVQLKESGPGLVAPSQSLSITCTVSGFSLSSYSVYWVRQPPGKGLEWLGVIWAGGSTNYNSALMSRLSINKDKSKSQVFLKMNSLQTDDSAIYYCAMRWLPRGLDFWGQGTSVTVSS
VL: DIVMTQSHKFMSTSVGDRVSITCKASQDVGTAVAWYQQKPGQSPKLLIYWASTRHTGVPDRFTGSGSGTDFTLTISNVQSEDLADYFCQQYSTYYTFGGGTKLEIK
B2: ch98A3A8 (antibody, V domains shown)
VH: EVQLQQSGPELVKPGASVKMSCKASGYTFTYYVTHWVRQKPGQGLEWIGYINPYNDGTMFNEKFKGKATLTSDKSSSTAYMEFSSLTSEDSAVFYCARGGVRRYFDVWGAGTTVTVSS
VL: DIQMTQSPSSLSASLGERVSLTCRASQDIGSNLNWLQQKPDGTIKRLIYATSSLDSGVPKRFSGSRSGSDYSLTINSLESEDFVDYYCLQYASFPYTFGGGTKLEIK
B3: ch96C9E7 (antibody, V domains shown)
VH: EVQLQQSGPELVKPGASVKMSCKASGYTFTYYILHWVKQKPGQGLEWIGYFNPYNDGNKFNERFRGKATLTSDKSSSTAYMELNSLTSEDSAVYFCARGGVRRYFDVWGAGTTVTVSS
VL: B2 VL with K39E, Y49S, S52F, N76S, D85N
B4: ch108C4C12 (antibody, V domains shown)
VH: B3 VH with Y31S, I33V, L34I, P41T, N58T, F60Y, R63E, R65K, S77N, E89D
VL: B2 VL with K39E, S52F, S53G, N76S, L89Q
B5: ch110B4H5 (antibody, V domains shown)
VH: EVQLQQSGPELVKPGASVKMSCKASGYTFTFYIMHWVKQKPGQGPEWIGYINPYNDGTKYNAKFKGKATLSSDRSSSTAYMELSSLTSEDSAVYYCARGGVRRYFDVWGAGTPVTVSS
VL: B2 VL with A25S, K39E, S52F, D70H, N76S, D85V, A92G
B6: ch20C4E1 (antibody, V domains shown)
VH: EVRLVESGGALVRPGGSLKLSCAASGFTFSDYGMHWVRQAPEKGLEWIAFISSVSFTIYYADTVKGRFTISRDNAKNTLFLQMTSLRSEDTALYYCTRLGPHWYFDVWGTGTTVTVSS
VL: DVVLTQTPLSLPVSLGDQASISCRSSQSLVYSNGNTYLHWFLQKPGQSPQLLIYKVSNRFSGVPDRFSGSGSGTDFTLKISRVEAEDLGVYFCSQSTPVPTFGGGTKLEIK
B7: ch89F11E3 (antibody, V domains shown)
VH: QVQLQQSGAELARPGASVKMSCKASGYTFTSSTIHWVKQRPGQGLAWIGYIVPSTGYTNYNQKFKDKATLTADKSSSTAYMQLTSLTSEDSAVYYCARSDGYPFGYSMAYWGQGTSVTVSS
VL: DIQMNQSPSSLSASLGDTITITCHASQNINVWLSWYHQKPGNIPKLLIYKASNLHTGVPSRFSGSGSGTGFTLTISRLQPEDIATYYCQQGQSYPFTFGSGTKLEIK
B8: ch15D6G2 (antibody, V domains shown)
VH: EVQLVESGGDLVKPGGYLRLSCAASGFTFSSHGMSWVRQTPDKRLEWVATISSGGRNTYYPDSVKGRFTISRDNAKNILYLQMSSLKSEDTAMFYCTRHSGDAMDYWGQGTSVTVSS
VL: DILLTQSPAILSVSPGERVSFSCRASQSIGTNIHWYQQRTNGSPRLLIKYASESISGIPSRFSGSGSGTDFTLSINSVESEDIADYYCQQSKSWPTFGGGTKLEIK
B9: ch90G6H3 (antibody, V domains shown)
VH: QAYLQQSGAELVRSGASVKMSCKASGYTFTSYIMHWVKQTPGQGLEWIGYIYPGNGGTNYNQKFKDKATLSADTSSSTAYMQINSLTSEDSAVYFCARWGLRQGFAYWGQGTLVSVSA
VL: DIVMTQSQKFMSTSVGDRVSVTCKASQNVGGNVAWYQQKPGQSPKALIYSTSYRNSGVPDRFTGSGSGTDFTLTISNVQSEDLAEYFCQQYNSYPFTFGSGTKLEIR
B10: ch12G12C2 (antibody, V domains shown)
VH: QIQLVQSGPELKMPGETVKISCKASGYTFTTYGLSWVKQAPGKGLKWMGWINTFSGVPIYADDFKGRFAFSLETSASTAYLQINNLKNEDTATYFCARWGIRQRGDYWGQGATLTVSS
VL: QIVLTQSPAIMSASPGEKVTMTCSASSSVSYLHWYQQKSGTSPKRWIYDTSKLASGVPVRFSGSGSETSYSLTISSMEAEDAATYYCQQWTSNPPTFGGGTKLEIK
B11: ch26E2H6 (antibody, V domains shown)
VH: EVQLVESGGDLVKPGGSLKLSCAASGFTFSSYGMSWVRQTPDKRLEWVATISSGGSYTYYPDSVKGRFTISRDNAKNTLYLQMSSLKSEDTAMYYCARHATDYWGQGTTLTVSS
VL: B10 VL with L32M, V59A, E67G, T91S, P95L, G99A, I105L
B12: ch101B3G3 (antibody, V domains shown)
VH: EVQLQQSGPELVKPGASMKISCKASGYSFTGYTMNWVKQSHGKNLEWIGLINPYNGGTRYNQKFKDKATLTVDKSSSTAYMELLSLTSEDSAVYYCARWLLRYAMDYWGQGTSVTVSS
VL: DIVMTQSQKFMSTSVGDRVSITCKASQNVGNAVAWYQQKPGHSPKLLISSASNRKNGVPDRFTGSGSGTDFTLTVSNMQSEDLADYFCQQYSDSSWTFGGGTKLEIK
B13: ch28H9C12 (antibody, V domains shown)
VH: EVQLVESGGGLVKPGGSLKLSCAASGFTFSDYGMHWVRQAPEKGLEWVAYISSGSSTIYYADTVKGRFTISRDNAKNTLFLQMTSLRSEDTAIYYCVRRPWYFDVWGTGTTVTVSS
VL: DVLMTQTPLSLPVSLGDQASISCRSSQSIVHSNGNTYLQWYLQKPGQSPKLLIYKVSNRFSGVPDRFSGSGSGTDFTLKISRLEAEDLGVYYCFQGSHVPFTFGSGTKLEIK

What follows are binders tested against T1, mouse GPRC5D (mouse) (assay: FACS, HEK293T-mGPRC5D cells).

| binding | Binder |
| --- | --- |
| binds | B1 |
| binds | B2 |
| binds | B3 |
| binds | B4 |
| binds | B5 |
| binds | B6 |
| binds | B7 |
| binds | B8 |
| binds | B9 |
| binds | B10 |
| binds | B11 |
| binds | B12 |
| binds | B13 |
